Data taken from PMC5052687.
Results are given in words; binding and its absence hold for the method and conditions named. Some binding calls cover weakened binding; strength is not graded here.

The chains behind the UniProt entries cited, without tags or fusion partners. Residues count along the entry.
UniProt P16671, residues 35-439: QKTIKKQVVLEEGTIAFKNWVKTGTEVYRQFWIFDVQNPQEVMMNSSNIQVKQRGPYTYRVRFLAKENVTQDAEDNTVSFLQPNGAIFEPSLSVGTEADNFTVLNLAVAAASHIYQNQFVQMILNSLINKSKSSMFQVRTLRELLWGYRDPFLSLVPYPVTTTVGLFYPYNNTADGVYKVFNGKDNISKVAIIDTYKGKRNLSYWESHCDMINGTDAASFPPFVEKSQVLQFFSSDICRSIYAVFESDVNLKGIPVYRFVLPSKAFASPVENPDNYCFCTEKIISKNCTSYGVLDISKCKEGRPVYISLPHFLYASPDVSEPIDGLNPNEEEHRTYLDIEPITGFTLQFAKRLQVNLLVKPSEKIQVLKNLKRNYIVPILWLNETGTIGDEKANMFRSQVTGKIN
UniProt P07996, residues 19-1170: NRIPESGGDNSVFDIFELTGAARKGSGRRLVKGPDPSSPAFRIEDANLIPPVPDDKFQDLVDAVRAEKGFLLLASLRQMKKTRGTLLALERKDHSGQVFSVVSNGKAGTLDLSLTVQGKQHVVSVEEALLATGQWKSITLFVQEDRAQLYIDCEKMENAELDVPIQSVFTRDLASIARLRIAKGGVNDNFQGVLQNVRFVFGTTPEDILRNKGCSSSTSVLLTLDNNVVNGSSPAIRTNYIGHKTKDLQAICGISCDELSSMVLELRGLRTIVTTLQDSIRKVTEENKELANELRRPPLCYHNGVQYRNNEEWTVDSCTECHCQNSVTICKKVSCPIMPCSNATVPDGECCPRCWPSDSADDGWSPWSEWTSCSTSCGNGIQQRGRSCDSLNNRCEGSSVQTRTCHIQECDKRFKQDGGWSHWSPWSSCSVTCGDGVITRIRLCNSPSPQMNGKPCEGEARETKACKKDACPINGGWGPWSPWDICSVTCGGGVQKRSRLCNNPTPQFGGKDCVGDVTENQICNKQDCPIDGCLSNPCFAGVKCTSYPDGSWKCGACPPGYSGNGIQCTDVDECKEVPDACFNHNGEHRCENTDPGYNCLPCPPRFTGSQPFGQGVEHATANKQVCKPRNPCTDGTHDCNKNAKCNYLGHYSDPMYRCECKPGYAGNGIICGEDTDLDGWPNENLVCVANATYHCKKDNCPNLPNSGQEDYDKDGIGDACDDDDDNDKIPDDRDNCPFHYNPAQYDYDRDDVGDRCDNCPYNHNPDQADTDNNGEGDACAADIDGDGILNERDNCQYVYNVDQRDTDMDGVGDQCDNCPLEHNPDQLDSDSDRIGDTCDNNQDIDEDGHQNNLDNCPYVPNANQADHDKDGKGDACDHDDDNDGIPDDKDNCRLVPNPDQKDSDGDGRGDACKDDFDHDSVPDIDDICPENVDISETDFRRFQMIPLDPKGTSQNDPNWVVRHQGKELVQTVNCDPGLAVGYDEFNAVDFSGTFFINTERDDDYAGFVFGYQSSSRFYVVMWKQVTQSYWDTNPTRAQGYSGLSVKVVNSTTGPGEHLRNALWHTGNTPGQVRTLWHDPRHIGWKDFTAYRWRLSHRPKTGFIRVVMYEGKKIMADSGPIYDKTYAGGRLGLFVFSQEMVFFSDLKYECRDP

Target: human CD36 ectodomain (residues 35-439) with C-terminal BAP tag, biotinylated (human) (UniProt P16671)
Test: SPR; competition: biotinylated CD36 immobilised on CAPture chip; CIDRα protein injected with 500 s association time, followed by 400 nM thrombospondin-1; 25 °C, 20 mM HEPES pH 7.5, 0.15 M NaCl, 0.005% Tween20; both purified

## Recombinant Human Thrombospondin-1 (from UniProt P07996 19-1170) (ligand)
  binding: binds
